For this assay, the system named is BDF1 mice, B16 melanoma ip, median survival T/C. In words: NCI In Vivo Anticancer Drug Screen. Data for tumor model B16 Melanoma (intraperitoneal) in B6D2F1 (BDF1) mice. The settings on record: T/C endpoint: median survival time, higher T/C = longer survival. In short, it runs like this:
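Values are ratios of treated (T) to vehicle-control (C) measurements of survival or tumor size in tumor-bearing mice.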

Setting [1] is: dose: 100.0 mg/kg/injection, schedule: Q01DX009 (ip), vehicle: Klucel (hydroxypropylcellulose) (HPC).
Setting [2] is: dose: 6.25 mg/kg/injection, schedule: Q01DX009 (ip), vehicle: Klucel (hydroxypropylcellulose) (HPC).
The mark [3] stands for this setting: dose: 12.5 mg/kg/injection, schedule: Q01DX009 (ip), vehicle: Klucel (hydroxypropylcellulose) (HPC).
The mark [4] stands for this setting: dose: 25.0 mg/kg/injection, schedule: Q01DX009 (ip), vehicle: Klucel (hydroxypropylcellulose) (HPC).
Where [5] appears, read: dose: 50.0 mg/kg/injection, schedule: Q01DX009 (ip), vehicle: Klucel (hydroxypropylcellulose) (HPC).
[6] abbreviates: dose: 200.0 mg/kg/injection, schedule: Q01DX009 (ip), vehicle: Klucel (hydroxypropylcellulose) (HPC).
[7] abbreviates: dose: 7.2 mg/kg/injection, schedule: Q01DX001 (ip), vehicle: water.

The values that follow come from PubChem BioAssay AID192 (DTP/NCI, 2004).

The list is a part of this screen's results and no random one: it gathers tests that were run many times, whatever their T/C, doses with no T/C, and many T/C values between a quarter and a half above the control. Further doses and runs are listed elsewhere. T/C: endpoint of the treated group in % of that of the vehicle group. Some entries give survivors of the animals treated and no T/C: the source files T/C as zero there, which appears to mark a toxic dose or a test without result, not a measured value. Some doses without a T/C left all or most animals alive at the check, yet need not have been tolerated: the source hardly ever lists a survival T/C far under the control, and the zero likely stands for such cases as well. Counts of survivors are from the toxicity check (mostly the fifth day) where no day follows; animals may have died later. Schedules are NCI's codes, taken here to give the interval after Q, in days (D) or hours (H), and the number of doses after X. Some entries hold several experiments; the values are given in rising order. For survival time, this PubChem deposit counts one and a half times the control or more as active, and values a quarter to a half above the control carry no call in these data; other NCI protocols may use other cut-offs.

`COC12[C@@H]3N[C@@H]3CN1C1=C(C(=O)C(NCCSSCCNC3=C(C)C(=O)C4=C(C3=O)C(COC(N)=O)[C@]3(OC)C5N[C@@H]5CN43)=C(C)C1=O)[C@@H]2COC(N)=O` (stereo partly specified): the T/C was 137 % of control (dose: 0.05 mg/kg/injection, schedule: Q04DX003 (ip), vehicle: other) and 149 % of control (dose: 0.1 mg/kg/injection, schedule: Q04DX003 (ip), vehicle: other). Also, the survivor count by setting is: (dose: 9.6 mg/kg/injection, schedule: Q04DX003 (ip), vehicle: other) 10 of 10 on day 10; (dose: 12.8 mg/kg/injection, schedule: Q04DX003 (ip), vehicle: other) 7 of 10 on day 10; (dose: 24.0 mg/kg/injection, schedule: Q04DX003 (ip), vehicle: saline with Tween-80) 10 of 10; (dose: 48.0 mg/kg/injection, schedule: Q04DX003 (ip), vehicle: saline with Tween-80) 10 of 10.
Consider `C[n+]1ccccc1/C=N/O`, for which the survivor count is listed as 6 of 10 (dose: 150.0 mg/kg/injection, schedule: Q01DX009 (ip), vehicle: saline) and 1 of 10 (dose: 300.0 mg/kg/injection, schedule: Q01DX009 (ip), vehicle: saline).
Regarding `CS(=O)(=O)OCC(O)C(O)COS(C)(=O)=O` (stereo unspecified), the T/C runs as follows: (dose: 400.0 mg/kg/injection, schedule: Q01DX009 (ip), vehicle: saline with Tween-80, evaluated on day 45) 137 % of control; (dose: 400.0 mg/kg/injection, schedule: Q01DX009 (ip), vehicle: saline with Tween-80, evaluated on day 60) 130 % of control.
Turning to `CCCCCCCCCCCCCC(=O)CCC`, the survivor count was 10 of 10 under setting [1]; 8 of 10 (dose: 200.0 mg/kg/injection, schedule: Q01DX009 (ip), vehicle: other); 10 of 10 (dose: 400.0 mg/kg/injection, schedule: Q01DX009 (ip), vehicle: other).
On to `O=C(NNCc1ccccc1)c1ccccn1`, for which the survivor count is, setting by setting: under setting [2], 10 of 10; under setting [3], 10 of 10; under setting [4], 10 of 10; under setting [1], 8 of 10 and 10 of 10.
Turning to `C=C1C(=O)OC2CC1C(O)C/C(C)=C/CC/C(C)=C/C(O)CC2C` (stereo unspecified), the survivor count by setting is: under setting [5], 8 of 10; under setting [1], 0 of 10; under setting [6], 0 of 10.
Take `O=C(Oc1cccc(OC(=O)c2ccc(Cl)cc2)c1)c1ccc(Cl)cc1`: the survivor count is, setting by setting: under setting [1], 9 of 9; under setting [6], 10 of 10; (dose: 400.0 mg/kg/injection, schedule: Q01DX009 (ip), vehicle: Klucel (hydroxypropylcellulose) (HPC)) 10 of 10.
As for `CC(=O)Nc1ccc(C)c(Cl)c1`, the survivor count (dose: 400.0 mg/kg/injection, schedule: Q01DX009 (ip), vehicle: saline with Tween-80) is 8 of 10.
With `CO[C@H]1C[C@@H]2CC[C@@H](C)[C@@](O)(O2)C(=O)C(=O)N2CCCC[C@H]2C(=O)O[C@H]([C@H](C)C[C@@H]2CC[C@@H](O)[C@H](OC)C2)CC(=O)[C@H](C)C=C(C)[C@@H](O)[C@@H](OC)C(=O)[C@H](C)C[C@H](C)/C=C/C=C/C=C1C`, the T/C is 144 % of control (dose: 12.5 mg/kg/injection, schedule: Q01DX009 (ip), vehicle: saline with Tween-80); 139 % of control (dose: 25.0 mg/kg/injection, schedule: Q01DX009 (ip), vehicle: saline with Tween-80); 125 % of control (dose: 50.0 mg/kg/injection, schedule: Q01DX009 (ip), vehicle: saline with Tween-80); 139 % of control (dose: 100.0 mg/kg/injection, schedule: Q01DX009 (ip), vehicle: saline with Tween-80).
Take `Nc1nccnc1N`: for the setting “dose: 200.0 mg/kg/injection, schedule: Q01DX009 (ip), vehicle: saline with Tween-80”, the survivor count is listed as 3 of 6.
As for `FC(F)(F)c1ccc2c(c1)N(CCCN1CC[N+]3(CCOCC3)CC1)c1ccccc1S2`, the survivor count reads like this: (dose: 0.5 mg/kg/injection, schedule: Q01DX009 (ip), vehicle: saline) 10 of 10; (dose: 4.0 mg/kg/injection, schedule: Q01DX009 (ip), vehicle: saline) 10 of 10.
Take `O=C(CN1C(=O)c2ccccc2C1=O)OC(c1ccccc1)c1ccccc1`: the survivor count under setting [6] is recorded as 9 of 10.
On to `CC1(C)N=C(N)N=C(N)N1c1cccc(CCCCc2cccc(N)c2)c1`, for which the survivor count was 10 of 10 under setting [2], 10 of 10 under setting [3], 10 of 10 under setting [4] and 10 of 10 under setting [5].
With `COC(=O)c1[nH]c(=O)[nH]c(=O)c1F`, the survivor count (dose: 16.0 mg/kg/injection, schedule: Q01DX009 (ip), vehicle: saline with Tween-80) is 10 of 10.
With `CC12CCC(O)CC1CCC1C2CCC2(C)C(c3ccc(=O)oc3)CCC12O` (stereo unspecified), the survivor count (dose: 5.0 mg/kg/injection, schedule: Q01DX009 (ip), vehicle: saline with Tween-80) is on record as 0 of 10.
Regarding `CO[C@H](/C(C)=C/C=C/C(C)=C/c1coc(C)n1)[C@H](C)[C@H]1C[C@@H](O)[C@@]2(C)O[C@H]2/C=C/[C@@H](C)[C@@H]2C[C@@H](CC(=O)O2)C[C@H]2O[C@@H]2C(=O)O1`, the T/C was 126 % of control (dose: 0.1 mg/kg/injection, schedule: Q01DX009 (ip), vehicle: Klucel (hydroxypropylcellulose) (HPC)); 142 % of control (dose: 0.2 mg/kg/injection, schedule: Q01DX009 (ip), vehicle: Klucel (hydroxypropylcellulose) (HPC)); 145 % of control (dose: 0.25 mg/kg/injection, schedule: Q01DX009 (sc), vehicle: Klucel (hydroxypropylcellulose) (HPC)). Besides, the survivor count by setting is: (dose: 0.8 mg/kg/injection, schedule: Q01DX009 (ip), vehicle: Klucel (hydroxypropylcellulose) (HPC)) 10 of 10; (dose: 1.0 mg/kg/injection, schedule: Q01DX009 (sc), vehicle: Klucel (hydroxypropylcellulose) (HPC)) 10 of 10; (dose: 1.6 mg/kg/injection, schedule: Q01DX009 (ip), vehicle: Klucel (hydroxypropylcellulose) (HPC)) 7 of 10; (dose: 2.0 mg/kg/injection, schedule: Q01DX009 (sc), vehicle: Klucel (hydroxypropylcellulose) (HPC)) 3 of 10; (dose: 4.0 mg/kg/injection, schedule: Q01DX009 (sc), vehicle: Klucel (hydroxypropylcellulose) (HPC)) 0 of 10.
For `COc1cccc2c1C(=N)c1c(O)c3c(c(O)c1C2=O)C[C@@](O)(C(C)=O)C[C@@H]3OC1CC(N)C(O)C(C)O1` (stereo partly specified), the T/C is, setting by setting: (dose: 0.25 mg/kg/injection, schedule: Q01DX009 (ip), vehicle: water) 138 % of control; (dose: 0.5 mg/kg/injection, schedule: Q01DX009 (ip), vehicle: water) 133 % of control; (dose: 3.13 mg/kg/injection, schedule: Q01DX001 (ip), vehicle: water) 142 % of control; under setting [7], 127 % of control; (dose: 12.0 mg/kg/injection, schedule: Q01DX001 (ip), vehicle: water) 131 % of control; (dose: 12.5 mg/kg/injection, schedule: Q01DX001 (ip), vehicle: water) 144 % of control. The survivor count is, setting by setting: under setting [7], 8 of 8; (dose: 8.0 mg/kg/injection, schedule: Q01DX009 (ip), vehicle: water) 10 of 10; (dose: 16.0 mg/kg/injection, schedule: Q01DX009 (ip), vehicle: water) 10 of 10; (dose: 20.0 mg/kg/injection, schedule: Q01DX001 (ip), vehicle: water) 8 of 8; (dose: 25.0 mg/kg/injection, schedule: Q01DX001 (ip), vehicle: water) 10 of 10; (dose: 33.3 mg/kg/injection, schedule: Q01DX001 (ip), vehicle: water) 5 of 8 and 8 of 8. In addition, the survivor count is, setting by setting: (dose: 50.0 mg/kg/injection, schedule: Q01DX001 (ip), vehicle: water) 8 of 10; (dose: 100.0 mg/kg/injection, schedule: Q01DX001 (ip), vehicle: water) 4 of 10; (dose: 200.0 mg/kg/injection, schedule: Q01DX001 (ip), vehicle: water) 0 of 10.
